The text below walks through data of patent US8287752B2, “Fire extinguishing and fire suppression compositions comprising unsaturated fluorocarbons” (E I du Pont de Nemours and Company, priority 2005, dated 2012).

The nature of this data set: Fire extinguishing concentration by the ICI Cup Burner method. Particulars: fuel n-heptane, air flow 40 liters/minute.

In the case of `FC(F)(F)F` [CF4], the “FIRE EXTINGUISHING CONCENTRATION” value turned out to be 20.5% vol % in air.
As to `FC(F)Cl` [CHF2Cl], the “FIRE EXTINGUISHING CONCENTRATION” value stood at 13.6% vol % in air.
In the case of `FC(F)(F)C(F)(F)F` [Code C2F6], the “FIRE EXTINGUISHING CONCENTRATION” value worked out at 8.7% vol % in air.
Take `FC(F)(F)C=CC(F)(F)F` [Code F11E, 1,1,1,4,4,4-hexafluorobut-2-ene]: the “FIRE EXTINGUISHING CONCENTRATION” value was 5.6% vol % in air.
Regarding `FC(F)(F)C=CC(F)(F)C(F)(F)C(F)(F)C(F)(F)F` [Code F14E, 1,1,1,4,4,5,5,6,6,7,7,7-dodecafluorohept-2-ene], the “FIRE EXTINGUISHING CONCENTRATION” value amounted to 4.7% vol % in air.
`FC(F)(F)C(F)(F)CCl` [HCFC-235cb]: the “FIRE EXTINGUISHING CONCENTRATION” value is recorded as 6.2% vol % in air.
For the compound `FC(C(F)(F)F)C(F)(F)F` [HFC-227ea], the “FIRE EXTINGUISHING CONCENTRATION” value is 7.3% vol % in air.
For the compound `FC(F)C(F)C(F)(F)F` (centres unmarked) [HFC-236ea], the “FIRE EXTINGUISHING CONCENTRATION” value is 10.2% vol % in air.
As to `FC(F)(Cl)Br` [Halon1211, bromochlorodifluoromethane], the “FIRE EXTINGUISHING CONCENTRATION” value is given as 6.2% vol % in air.
The value for `FC(F)(F)Br` [Halon1301, bromotrifluoromethane] was 4.2% vol % in air; that for `C=CC(F)(F)C(F)(F)C(F)(F)C(F)(F)F` [PFBE, 3,3,4,4,5,5,6,6,6-nonafluorohex-1-ene] was 5.3% vol % in air.
